# Measurements taken from PubChem BioAssay AID1745853 (National Center for Advancing Translational Sciences (NCATS), 2022).
# Sequences of proteins named here, by UniProt entry; tags and fusion partners are left off.
# UniProt Q14749, whole entry: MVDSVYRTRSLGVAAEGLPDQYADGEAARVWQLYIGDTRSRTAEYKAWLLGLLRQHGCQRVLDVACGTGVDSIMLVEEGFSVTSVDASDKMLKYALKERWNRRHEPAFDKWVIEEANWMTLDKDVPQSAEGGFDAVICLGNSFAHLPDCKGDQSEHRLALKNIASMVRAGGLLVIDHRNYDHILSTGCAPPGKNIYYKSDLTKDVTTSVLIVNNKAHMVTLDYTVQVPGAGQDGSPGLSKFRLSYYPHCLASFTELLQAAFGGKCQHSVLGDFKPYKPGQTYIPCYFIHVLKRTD
# UniProt P50135, whole entry: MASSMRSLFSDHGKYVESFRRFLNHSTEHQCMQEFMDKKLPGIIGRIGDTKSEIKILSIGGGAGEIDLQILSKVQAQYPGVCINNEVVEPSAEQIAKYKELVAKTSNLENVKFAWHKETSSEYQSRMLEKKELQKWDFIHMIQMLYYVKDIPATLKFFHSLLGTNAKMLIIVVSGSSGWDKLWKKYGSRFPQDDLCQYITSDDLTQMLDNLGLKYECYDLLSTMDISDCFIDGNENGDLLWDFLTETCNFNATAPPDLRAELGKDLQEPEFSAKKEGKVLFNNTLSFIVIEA
# UniProt P40261, whole entry: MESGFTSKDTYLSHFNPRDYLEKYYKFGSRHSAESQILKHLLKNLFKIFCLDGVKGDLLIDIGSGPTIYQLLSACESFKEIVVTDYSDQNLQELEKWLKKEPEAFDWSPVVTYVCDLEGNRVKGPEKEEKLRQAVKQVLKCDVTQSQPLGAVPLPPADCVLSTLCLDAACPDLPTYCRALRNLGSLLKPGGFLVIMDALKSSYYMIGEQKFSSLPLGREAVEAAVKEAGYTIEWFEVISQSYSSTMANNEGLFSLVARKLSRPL
# UniProt P11086, whole entry: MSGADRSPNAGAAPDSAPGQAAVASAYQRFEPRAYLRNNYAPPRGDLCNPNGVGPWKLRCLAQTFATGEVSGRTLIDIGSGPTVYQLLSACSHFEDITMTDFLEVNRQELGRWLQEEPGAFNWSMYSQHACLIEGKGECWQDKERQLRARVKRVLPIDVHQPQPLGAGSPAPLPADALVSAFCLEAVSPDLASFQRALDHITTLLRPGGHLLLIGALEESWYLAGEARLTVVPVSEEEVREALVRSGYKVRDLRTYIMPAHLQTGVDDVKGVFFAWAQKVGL
# The other results are listed elsewhere or left out.
# What was measured:
# Experiment in all cases: Primary Screen for Target Class Profiling of Small Molecule Inhibitors of Methyltransferases
# [1] = target: Glycine N-methyltransferase (Homo sapiens) (UniProt Q14749); settings: purified enzyme, MTase-Glo SAH luminescence; measured here: GNMT inhibition; at 40 µM; stronger effect = lower value
# Source text: (§1) PI: Matthew D. Hall Ph.D. and Quinlin M. Hanson Ph.D.
# (§2) National Center for Advancing Translational Sciences (NCATS)
# (§3) National Institute of Health (NIH), Rockville, MD
# (§4) Target class profiling (TCP) is a chemical biology approach amenable to investigating understudied biological targets. TCP is achieved by developing a generalizable assay platform and applying it to screen a curated set of compound libraries against representative members of a target class. Small molecule methyltransferases (SMMTase) are a subclass of methyltransferase that act on metabolites to modulate signaling pathways, metabolize xenobiotics, or balance the available methyl pool. We screened four curated libraries totaling 27,574 unique compounds against the SMMTases nicotinamide N-methyltransferase (NNMT), phenylethanolamine N-methyltransferase (PNMT), histamine N-methyltransferase (HNMT), glycine N-methyltransferase (GNMT), catechol O-methyltransferase (COMT), and guanidinoacetate N-methyltransferase (GAMT). The data generated by this TCP can be leveraged for informed tool molecule development. For example, in the associated publication we identified a chemotype of HNMT-selective inhibitors. Additionally, we identified a putative SMMTase-selective inhibitor with potential as a tool molecule for studying broader methyltransferase biology.
# (§5) High-through put screening assays were developed at the National Center for Advancing Translational Science (NCATS) for the enzymes NNMT, PNMT, HNMT, GNMT, COMT, and GAMT. Enzymatic activity was measured as a function of SAM cofactor conversion using the MTase Glo kit (Promega) for all enzymes. All assays were performed in 1536-well format with substrates and SAM concentrations at KM values. Enzyme concentration and assay timing were optimized for 10-20% SAM conversion. Initial screening of 27,574 compounds was done as single-point assays using the highest compound concentration (40 uM). […] These compounds were replated in 11-point dose response and assayed against NNMT, PNMT, HNMT, GNMT, COMT, GAMT, and a counter-assay. The IC50 and efficacy (maximal response) values were determined for each dose-response curve. These values are also accounted for in the area under the curve (AUC) values.
# (§6) PROTOCOL TABLE (as described by Inglese J, Shamu CE and Guy RK. 2007)
# (§7) SEQUENCE No. (e.g., 1, 2, 3, etc.); […] (e.g., Cells, Incubation, Reagent, etc.); VALUE; DESCRIPTION.
# (§8) 1; Reagent; 2 uL; SMMTase Enzyme (2x) in reaction buffer, columns 1- 48.
# (§9) 2; Reagent; 1 uL; SAM (4x) in reaction buffer, columns 1-48.
# (§10) 3; Controls; 23 nL; DMSO in column 4; sinefungin in DMSO (0 uM - 40 uM) in 7-point 1:2 dilution series (n = 2) in column 2.
# (§11) 4; Compounds; 23 nL; Columns 5-48.
# (§12) 5; Reagent; 1 uL; Substrate (4x) in reaction buffer, columns 2-48.
# (§13) 6; Time; 20-30 min; Incubation.
# (§14) 7; Reagent; 1 uL; MTase-Glo reagent (5X), columns 1-48.
# (§15) 8; Time; 30 min; Incubation.
# (§16) 9; Reagent; 5 uL; MTase-Glo Detection reagent, columns 1-48.
# (§17) 10; Time; 30 min; Incubation, luminescence evolution.
# (§18) 11; Detection; Luminescence; ViewLux uHTS Microplate Imager (PerkinElmer).
# (§19) NOTES (numbers refer to Sequence numbers above)
# (§20) 1, 2, 5. White Medium Binding Greiner 1536-well plates (Cat #789175-F, Greiner Bio-One, Monroe, NC); Reaction buffer: 50 mM Tris, pH 8.0, 3 mM MgCl2, 1 mM EDTA, 50 mM NaCl, 1 mM DTT, and 0.1 mg/mL BSA. Evaporation was prevented by covering assay plates with metal lids containing holes to allow gas diffusion.
# (§21) 1. Six SMMTase were profiled: HNMT, GNMT, PNMT, COMT, NNMT, GAMT
# 5. […]
# [2] = target: Guanidinoacetate N-methyltransferase (Homo sapiens) (UniProt Q14353); settings: purified enzyme, MTase-Glo SAH luminescence; measured here: GAMT inhibition; at 40 µM; stronger effect = lower value
# Source text: as §1, §2, §3, §4, §5, §6, §7, §8, §9, §10, §11, §12, §13, §14, §15, §16, §17, §18, §19, §20, §21
# 5. […]
# [3] = target: Histamine N-methyltransferase (Homo sapiens) (UniProt P50135); settings: purified enzyme, MTase-Glo SAH luminescence; measured here: HNMT inhibition; at 40 µM; stronger effect = lower value
# Source text: as §1, §2, §3, §4, §5, §6, §7, §8, §9, §10, §11, §12, §13, §14, §15, §16, §17, §18, §19, §20, §21
# 5. […]
# [4] = target: Nicotinamide N-methyltransferase (Homo sapiens) (UniProt P40261); settings: purified enzyme, MTase-Glo SAH luminescence; measured here: NNMT inhibition; at 40 µM; stronger effect = lower value
# Source text: as §1, §2, §3, §4, §5, §6, §7, §8, §9, §10, §11, §12, §13, §14, §15, §16, §17, §18, §19, §20, §21
# 5. […]
# [5] = target: Phenylethanolamine N-methyltransferase (Homo sapiens) (UniProt P11086); settings: purified enzyme, MTase-Glo SAH luminescence; measured here: PNMT inhibition; at 40 µM; stronger effect = lower value
# Source text: as §1, §2, §3, §4, §5, §6, §7, §8, §9, §10, §11, §12, §13, §14, §15, §16, §17, §18, §19, §20, §21
# 5. […]
# % is scaled to controls: 0 for no effect and ±100 for the full control effect.
structure (smiles),measurement,setting,value
CC(=O)N1CCc2ccc(N(C(=O)/C=C/c3cccc(C#N)c3)C3CCN(CCC4CCCC4)CC3)cc21,"activity change, negative = inhibition",[1],5.33%
same,"activity change, negative = inhibition",[2],5.78%
same,"activity change, negative = inhibition",[3],-2.67%
same,"activity change, negative = inhibition",[4],2.38%
same,"activity change, negative = inhibition",[5],4.15%
